Data source: PubChem BioAssay AID1259425 (University of Nebraska Medical Center, 2018)
Shown is a random part of about 14,000 reagents tested. Not all columns of the deposit are shown. Reagent sequences are not shown. Not given: the time to read-out.

Purpose: 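Seek colon cancer weak points whose silencing resembles KSR1 loss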 (primary screen)
System: HCT116 human colon cancer cells
Reagents: siRNA pool against human genes, 50 nM siRNA
Measurement: 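mRNA of six signature genes measured together by branched-DNA assay after 50 nM siRNA pool, blank removed, divided by geometric mean of two housekeeping genes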
Direction: BNIP3L mRNA: higher = more BNIP3L transcript after knockdown

target gene | PubChem SID | BNIP3L mRNA, set 1
CLIP3 | SID363999549 | 0.0873
CD244 | SID364000077 | 0.152
SEMA4D | SID363997193 | 0.105
PTPRM | SID363994001 | 0.0675
PANX2 | SID364004398 | 0.119
ATP2A3 | SID363996100 | 0.102
SERAC1 | SID364004235 | 0.155
TOX | SID364005587 | 0.286
MBD3L1 | SID364004650 | 0.135
IVL | SID363996447 | 0.107
SMG9 | SID364001408 | 0.0942
GLRX5 | SID364000094 | 0.0684
RSPRY1 | SID364004530 | 0.0673
RPL23A | SID363992267 | 0.305
BCLAF1 | SID363999070 | 0.0343
CEP162 | SID363999180 | 0.0451
LIME1 | SID364000541 | 0.127
PLEKHA5 | SID364001329 | 0.138
SEMA6B | SID364001586 | 0.106
USP2 | SID363995205 | 0.113
CLTRN | SID364001766 | 0.107
GNL1 | SID363996195 | 0.0462
NDRG3 | SID364002462 | 0.0715
SLC13A2 | SID363995037 | 0.147
MRPL1 | SID364001581 | 0.127
TLE4 | SID363997740 | 0.1
RAMP2 | SID363996728 | 0.0615
ATP2B3 | SID364002240 | 0.0931
HPSE | SID363997451 | 0.104
RNF170 | SID364003521 | 0.0973
PCDHGB1 | SID364001249 | 0.0803
ERI3 | SID364005362 | 0.0619
DKC1 | SID363992640 | 0.0547
SGCA | SID363991362 | 0.142
ZPBP | SID363997744 | 0.11
HCCS | SID363996249 | 0.0706
TRMT5 | SID364005522 | 0.114
H2BC12L | SID364000320 | 0.112
HAVCR1 | SID363998139 | 0.0643
SPP1 | SID363991900 | 0.192
RARRES1 | SID363994044 | 0.109
DCP1A | SID364001044 | 0.0526
PLCE1 | SID364000047 | 0.127
CNBP | SID363994523 | 0.103
C11orf71 | SID364001334 | 0.0843
LYZL1 | SID364004029 | 0.0694
SIM1 | SID363996005 | 0.102
FOXP2 | SID363998902 | 0.0907
HNRNPD | SID363993342 | 0.185
EDC3 | SID364003240 | 0.271

Reprinted from above for reference:
target gene | PubChem SID | BNIP3L mRNA, set 1
SMG9 | SID364001408 | 0.0942
GLRX5 | SID364000094 | 0.0684
RSPRY1 | SID364004530 | 0.0673
RPL23A | SID363992267 | 0.305
BCLAF1 | SID363999070 | 0.0343
CEP162 | SID363999180 | 0.0451
LIME1 | SID364000541 | 0.127
